Experimental data: PubChem BioAssay AID1508588 (Peter MacCallum Cancer Centre, 2020)
The whole screen tested about 18,000 reagents; shown is a part drawn at random. 790 of all reagents (4.4%) count as active. 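Calls rest on a combination of fold-change classes in drug and vehicle arms, not all shown here.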 A number with no mark means an inactive call.

Aim: 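Which gene losses make BRAF-mutant melanoma cells more responsive to vemurafenib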 (primary screen)
Cells: human WM266.4 melanoma cells (BRAF V600 mutant)
Knock-down reagent: siRNA pool against human genes, 40 nM
Time to read-out: 96 h from transfection to read-out
Challenge: vemurafenib 300 nM (about IC25), added 48 h after transfection, for 48 h; comparison arm got DMSO vehicle only
Measured: 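Cell gain (DAPI nuclei at end minus before drug, mean of two replicates) and medium lactate by absorbance per cell, both as ratio to non-targeting siRNA, also grouped into fold-change classes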
Direction: cell gain with vemurafenib: higher = more cell gain than with non-targeting siRNA; lactate per cell with vemurafenib: higher = more lactate made per cell
Rule for the call: 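a knock-down counts as enhancing when its fold-change classes with vehicle and with vemurafenib, taken together, show a stronger drug effect on cell gain or lactate per cell; exact class pairs not stated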
Meaning of the calls: active = enhances vemurafenib effect; inactive = no enhancement seen

gene | PubChem SID | cell gain with vemurafenib | lactate per cell with vemurafenib
PCDHA13 | SID134317481 | 1.31 | 0.65
CT47A2 | SID135625662 | 0.92 (active) | 0.41
AGBL2 | SID134317186 | 0.37 | 1.42
LRP5 | SID152155895 | 0.72 | 0.82
BBS1 | SID152146905 | 0.84 | 1.38
RNASEL | SID56478962 | 0.61 | 1.25
NMT2 | SID152147555 | 0.48 | 0.68
POU4F1 | SID152150442 | 0.45 | 0.6
ZNF598 | SID135621314 | 0.67 | 0.62
MYH11 | SID152147254 | 0.9 | 0.3
CDC14B | SID135620684 | 0.87 | 1.47
PRKCA | SID56478672 | 0.28 | 0.76
LANCL3 | SID134326841 | 0.75 | 0.82
TNFRSF13B | SID134313022 | -0.05 | 1.68
KRTAP10-4 | SID135624996 | 0.77 | 0.7
USP21 | SID134311492 | 0.18 | 0.4
DEFB124 | SID135625247 | 0.49 | 1.41
BATF2 | SID134320805 | 0.18 | 2.04
TAF6 | SID135622261 | 0.51 | 1.09
FLVCR2 | SID134324742 | 0.2 | 1
DHDDS | SID135621944 | 1.15 | 0.44
TUBG1 | SID135620947 | 0.37 | 1.72
CCNQ | SID134321048 | 0.46 | 1.29
TPM1 | SID135623405 | 0.7 | 0.9
KIF5B | SID134313716 | 0.74 | 0.76
IGFL2 | SID135625225 | 0.94 | 0.81
ANKK1 | SID56478922 | 0.52 | 1.04
WFDC11 | SID134321415 | 0.52 | 0.9
CFHR2 | SID152150716 | 0.5 | 1.21
UBXN11 | SID135623138 | 0.36 | 0.49
TMEM60 | SID134319113 | 0.14 | 2.3
RSRC2 | SID135623090 | 0.61 | 1.15
ZNF747 | SID134318425 | 0.24 | 1.03
NUDCD3 | SID152153937 | 0.62 | 0.52
APC2 | SID152155591 | 0.01 | 0.68
UNCX | SID135624515 | 0.74 | 0.55

The list goes on, starting with the last 5 of the part before.
gene | PubChem SID | cell gain with vemurafenib | lactate per cell with vemurafenib
RSRC2 | SID135623090 | 0.61 | 1.15
ZNF747 | SID134318425 | 0.24 | 1.03
NUDCD3 | SID152153937 | 0.62 | 0.52
APC2 | SID152155591 | 0.01 | 0.68
UNCX | SID135624515 | 0.74 | 0.55
CHODL | SID134321148 | 0.6 | 0.52
PDGFC | SID135622463 | 0.95 | 0.74
MED13L | SID135624634 | 0.38 | 1.02
MEF2C | SID134314196 | 0.99 | 1.27
PAN2 | SID134324797 | 0.94 | 0.89
UAP1L1 | SID134326438 | 0.64 | 0.74
ERRFI1 | SID152155327 | 0.44 | 1.22
HSPB2 | SID134313701 | 0.35 | 1.33
GLRX3 | SID152153039 | 0.63 | 0.69
PCDH15 | SID152154112 | 0.35 | 0.98
TMPRSS11F | SID152152640 | 0.66 | 0.66
PIGR | SID134321642 | 0.72 | 1.06
CD8A | SID152152225 | 0.71 | 1.34
SCGB2B2 | SID152156135 | 0.74 | 0.84
CYBB | SID152150257 | 0.29 | 0.9
NPRL3 | SID135623902 | 0.48 | 0.73
TAF7 | SID135622582 | 0.67 | 0.92
ARFRP1 | SID134323053 | 0.08 | 1.51
ATP6V0A1 | SID152156327 | 0.77 | 0.68
EPGN | SID152151453 | 0.31 | 0.64
GPR132 | SID134310950 | 0.19 | 2.22
SCGN | SID152155763 | 0.36 | 0.86
S100A13 | SID152150700 | 0.35 | 1.08
HDAC3 | SID152154607 | 0.43 | 0.74
MPP1 | SID56479235 | 0.58 | 0.84
ADH1B | SID152156155 | 0.7 | 0.78
SNX19 | SID152156616 | 0.22 | 1.38
CPSF3 | SID134311753 | 0.96 | 0.68
GNPDA1 | SID152152004 | 1.02 | 0.77
CSRP1 | SID135622205 | 1.02 | 1.03
PLIN3 | SID152150504 | 0.18 | 3.09
METTL23 | SID135625214 | 0.79 | 0.58
NTRK2 | SID152152425 | 0.97 | 0.62
FOXC1 | SID152153551 | 0.69 | 1.11
PYDC2 | SID152156168 | 0.53 (active) | 0.34
BCAT1 | SID152149798 | 0.82 | 1.04
ZCCHC9 | SID134318920 | 0.55 | 0.83
SCAMP3 | SID135622527 | 0.53 | 1.04
DIPK1C | SID135624377 | 0.38 | 0.22
CEP72 | SID152149787 | -0.08 | 1.96
WDR47 | SID152150654 | 0.61 | 1.24
HERPUD2 | SID134322148 | 0.87 | 0.77
CHRNA7 | SID152152661 | 0.55 | 1.65
LRRC24 | SID135625341 | 0.7 | 0.91
AGTPBP1 | SID134318242 | 0.85 | 1.1
NR0B1 | SID134309860 | 0.86 | 0.37
BRAF | SID152153735 | -0.28 | 0.12
ZNF281 | SID134312084 | 0.65 | 1.29
NUSAP1 | SID135620880 | 0.69 | 1.1
USP20 | SID152150163 | 0.32 | 0.93
KIAA1755 | SID152154020 | 0.37 | 1.84
LINC02145 | SID152150462 | 0.87 | 1.3
FAM114A1 | SID134319588 | 0.92 | 0.45
TP53INP1 | SID152152012 | 0.83 | 0.62
CYP1B1 | SID134313163 | 0.71 | 1.31
ZNF264 | SID152152410 | 1.17 | 0.69
H4C7 | SID135622130 | 0.62 | 0.9
NCAM2 | SID134315110 | 0.71 | 1.12
LAMP2 | SID134316036 | 0.76 | 1.03
LINC01587 | SID134316370 | 0.94 | 0.76
RBM18 | SID134319134 | 1 | 0.72
PLCXD2 | SID134312287 | 0.21 | 1.94
ANGEL1 | SID135622658 | 0.33 | 1.32
ZNRF3 | SID152150748 | 0.95 | 0.82
RGS7 | SID152151510 | 1.34 | 0.76
RAB2B | SID134314942 | 0.61 | 1.56
DYNC1H1 | SID152148907 | 0.64 | 0.91
SACK1D | SID152153527 | 0.59 | 0.87
ORAI2 | SID135622861 | 0.14 | 1.73
SPATA31D1 | SID135625280 | 0.56 | 1.84
HSD3B2 | SID152155917 | 1.1 | 0.6
